Experimental findings from publication PMC7862700 are described below.

What all share (assay): DAPPL (digital affinity profiling via proximity ligation, sequencing)
Holding throughout (settings): 10 mM Tris-HCl pH 7.5, 50 mM NaCl, 1 mM DTT, 4% glycerol, room temperature, 30 min; GST-TFs on glutathione beads, 16-mer random dsDNA library, 0.1% …; high values mean tight binding; double strand, one strand shown; scale: fold enrichment (6-mer frequency, TF over GST control)

Assay [1] deals with T1, ELK3 (UniProt P41970).
T1 sequence: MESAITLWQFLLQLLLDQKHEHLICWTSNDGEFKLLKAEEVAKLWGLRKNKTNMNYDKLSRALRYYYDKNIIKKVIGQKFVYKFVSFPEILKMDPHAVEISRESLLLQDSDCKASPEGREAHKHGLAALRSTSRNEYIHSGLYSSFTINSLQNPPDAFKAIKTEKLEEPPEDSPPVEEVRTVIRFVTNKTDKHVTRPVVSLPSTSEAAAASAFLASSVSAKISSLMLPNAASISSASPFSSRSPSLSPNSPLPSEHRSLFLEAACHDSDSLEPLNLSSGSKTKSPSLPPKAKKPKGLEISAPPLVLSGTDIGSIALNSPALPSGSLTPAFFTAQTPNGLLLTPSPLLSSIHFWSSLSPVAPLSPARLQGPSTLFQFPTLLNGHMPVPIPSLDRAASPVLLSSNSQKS

The target of assay [2] is T2, SPIC (UniProt Q8N5J4).
T2 sequence: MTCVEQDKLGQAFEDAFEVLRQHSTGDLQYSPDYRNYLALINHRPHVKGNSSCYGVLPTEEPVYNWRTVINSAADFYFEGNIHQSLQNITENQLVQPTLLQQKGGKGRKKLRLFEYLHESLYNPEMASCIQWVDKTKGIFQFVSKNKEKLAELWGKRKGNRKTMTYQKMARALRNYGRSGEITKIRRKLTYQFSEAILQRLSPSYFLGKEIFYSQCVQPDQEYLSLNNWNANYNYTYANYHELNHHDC

For assay [3], the target named is T3, ELK1 (UniProt P19419).
T3 sequence: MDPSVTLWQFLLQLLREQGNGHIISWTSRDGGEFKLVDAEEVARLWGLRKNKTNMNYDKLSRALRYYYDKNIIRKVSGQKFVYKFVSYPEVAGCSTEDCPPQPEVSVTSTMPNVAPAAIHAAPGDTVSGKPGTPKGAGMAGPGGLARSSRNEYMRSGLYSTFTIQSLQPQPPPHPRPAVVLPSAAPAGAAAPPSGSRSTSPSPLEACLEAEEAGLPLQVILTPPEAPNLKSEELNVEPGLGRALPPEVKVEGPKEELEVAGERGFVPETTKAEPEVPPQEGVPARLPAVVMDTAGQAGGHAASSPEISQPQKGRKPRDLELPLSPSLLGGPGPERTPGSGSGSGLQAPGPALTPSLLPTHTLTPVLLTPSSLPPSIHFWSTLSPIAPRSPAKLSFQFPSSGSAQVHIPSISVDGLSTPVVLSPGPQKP

Assay [4] concerns the target T4, ETS2 (UniProt P15036).
T4 sequence: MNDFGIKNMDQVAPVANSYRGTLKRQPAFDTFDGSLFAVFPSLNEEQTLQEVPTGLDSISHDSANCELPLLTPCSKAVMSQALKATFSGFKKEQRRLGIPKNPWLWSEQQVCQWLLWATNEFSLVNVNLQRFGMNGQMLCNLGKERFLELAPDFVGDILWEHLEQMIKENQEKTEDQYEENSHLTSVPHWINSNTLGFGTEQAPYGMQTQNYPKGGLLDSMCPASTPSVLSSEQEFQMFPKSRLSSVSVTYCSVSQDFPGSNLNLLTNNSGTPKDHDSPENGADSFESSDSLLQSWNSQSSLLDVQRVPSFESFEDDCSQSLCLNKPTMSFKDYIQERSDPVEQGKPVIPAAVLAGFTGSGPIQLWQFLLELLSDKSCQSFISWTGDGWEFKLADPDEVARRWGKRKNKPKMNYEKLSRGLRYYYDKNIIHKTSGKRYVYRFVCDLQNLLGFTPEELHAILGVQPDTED

Assay [5] has as its target T5, ETV3 (UniProt P41162-2).
T5 sequence: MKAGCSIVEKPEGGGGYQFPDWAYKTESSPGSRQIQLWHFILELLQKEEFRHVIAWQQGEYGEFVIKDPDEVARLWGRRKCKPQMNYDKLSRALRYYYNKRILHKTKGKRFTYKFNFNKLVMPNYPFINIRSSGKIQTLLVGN

The list shows a part of the results, in another mix than the full data. For part of these data: At the low end of the ranking, values are background and their order means little.

Turning to ACACTA, the binding signal in assay [1] was determined as 1.1; in assay [2], 1.14.

On to CCCACC, for which the binding signal came out at 1.16 in assay [1] and 1.21 in assay [2].

With GGTGTT, the binding signal in assay [1] turned out to be 0.979; in assay [2], 1.09.

As for GTCCCA, the binding signal is 1.18 in assay [1] and 1.12 in assay [2].

ACCCTT: the binding signal was 1.2 in assay [1] and 1.02 in assay [2].

With CTGCTT, the binding signal in assay [3] is 1.57; in assay [4], 1.63.

In the case of CCAAAC, the results for the binding signal in assay [3] and in assay [4] were 1.13 and 1.1, respectively.

Take GTTAAA: the binding signal in assay [3] turned out to be 0.923; in assay [4] it was 0.969.

Turning to AATATG, the values for the binding signal in assay [3] and in assay [4] were 1.13 and 1.15, respectively.

With CCCATA, the figures for the binding signal in assay [3] and in assay [4] were 1.26 and 1.29, respectively.

For ATTATA, the figures for the binding signal in assay [3] and in assay [4] were 1.32 and 1.37, respectively.

On to CTTAAT, for which the values for the binding signal in assay [3] and in assay [4] were 1.2 and 1.37, respectively.

As to CTCGTC, the binding signal in assay [3] turned out to be 1.27; in assay [4], 1.46.

For the sequence TGGTCG, the binding signal in assay [3] was found to be 0.968; in assay [4], 0.956.

In the case of CTTAAG, the results for the binding signal in assay [3] and in assay [4] were 1.11 and 0.978, respectively.

For TCCGAA, the results for the binding signal in assay [3] and in assay [4] were 1.28 and 1.23, respectively.

For TCCGTA, the binding signal in assay [3] amounted to 1.63; in assay [4], 1.57.

In the case of CACGTA, the binding signal in assay [3] was 1.18; in assay [4] it was 1.14.

Regarding TAAGCC, the results for the binding signal in assay [3] and in assay [4] were 1.12 and 1.15, respectively.

TATATC: the binding signal in assay [3] is 1.62; in assay [4] it was 1.64.

As for TTAATA, the binding signal in assay [3] was found to be 1.23; in assay [4] it was 1.21.

Turning to AAGGCT, the binding signal turned out to be 0.991 in assay [3] and 0.973 in assay [4].

On to TAATCA, for which the binding signal in assay [3] and in assay [4] was 1.14 throughout.

As to AGTCCC, the binding signal is 1.06 in assay [3] and 0.965 in assay [4].

TACCAT: the results for the binding signal in assay [3] and in assay [4] were 1.09 and 1.22, respectively.

As to AATCTA, the values for the binding signal in assay [3] and in assay [4] were 1.06 and 1.16, respectively.

Consider TTCGAT, for which the binding signal in assay [3] was determined as 1.23; in assay [4], 1.33.

GTTCAA: the binding signal in assay [3] came out at 1.18; in assay [4], 1.14.

For TGATTG, the binding signal in assay [3] worked out at 1.16; in assay [4], 1.01.

For the sequence AGTGCC, the binding signal in assay [3] was 0.973; in assay [4], 0.999.

On to ACCGCT, for which the binding signal in assay [3] came out at 1.12; in assay [4] it was 1.1.

In the case of GTATCC, the figures for the binding signal in assay [3] and in assay [4] were 1.9 and 1.84, respectively.

For CGCCAC, the values for the binding signal in assay [3] and in assay [4] were 0.969 and 0.899, respectively.

Regarding CTGCTG, the binding signal amounted to 1.26 in assay [3] and 1.36 in assay [4].

Consider CCTCAG, for which the binding signal came to 1.23 in assay [3] and 1.25 in assay [4].

In the case of CTAGAA, the binding signal came out at 1 in assay [3] and 1.02 in assay [4].

On to CCCGCT, for which the binding signal amounted to 1.31 in assay [3] and 1.22 in assay [4].

Consider GCGGAA, for which the binding signal in assay [3] was determined as 1.33; in assay [4], 1.42.

On to GCAACT, for which the results for the binding signal in assay [3] and in assay [4] were 1.19 and 1.16, respectively.

As for TCGCTG, the binding signal is 0.998 in assay [3] and 1.12 in assay [4].

With GCTTGT, the binding signal is 0.956 in assay [3] and 1.07 in assay [4].

In the case of ATACGC, the binding signal in assay [3] turned out to be 1.14; in assay [4] it was 1.11.

Take CTACGG: the binding signal in assay [3] is 1.27; in assay [4], 1.16.

Turning to CCACTG, the binding signal in assay [3] was determined as 1.11; in assay [4] it was 1.16.

ACATAG: the binding signal turned out to be 0.956 in assay [3], 1.05 in assay [4] and 0.989 in assay [5].

Regarding AAGGCC, the binding signal stood at 0.909 in assay [3], 0.982 in assay [1], 0.96 in assay [4] and 0.961 in assay [5].

As for GTGTAC, the binding signal turned out to be 0.976 in assay [3], 0.867 in assay [4] and 0.916 in assay [5].

On to AATTGA, for which the binding signal was 1.19 in assay [3], 1.26 in assay [4] and 1.17 in assay [5].

With ACGAGC, the figures for the binding signal in assay [3], in assay [4] and in assay [5] were 0.993, 0.937 and 0.985, respectively.

In the case of GTGGTT, the binding signal turned out to be 0.909 in assay [3], 0.9 in assay [4] and 0.868 in assay [5].

For AGTAAC, the binding signal in assay [3] is 0.984; in assay [4] it was 0.965; in assay [5] it was 1.09.

For GTGGCC, the binding signal in assay [3] stood at 0.987; in assay [4], 1.01; in assay [5] it was 0.967.

Turning to GCACTC, the binding signal was found to be 1.5 in assay [3], 1.23 in assay [4] and 1.28 in assay [5].

Turning to CTAGCC, the binding signal in assay [3] worked out at 0.943; in assay [4], 0.981; in assay [5], 0.955.

For TGATAG, the binding signal stood at 1.07 in assay [3], 1.06 in assay [4] and 1.05 in assay [5].

As for GTCCGC, the binding signal in assay [3] was determined as 0.967; in assay [4], 0.99; in assay [5], 1.03.

On to CACTGA, for which the values for the binding signal in assay [3], in assay [4] and in assay [5] were 0.96, 1.04 and 0.985, respectively.

With ACCCAT, the values for the binding signal in assay [3], in assay [4] and in assay [5] were 1.21, 1.37 and 1.25, respectively.

AGGCAC: the binding signal in assay [3] stood at 0.826; in assay [1], 0.821; in assay [4], 0.88; in assay [5], 0.905.
